According to paper PMC3131257, “Hypericum lanceolatum (Hypericaceae) as a potential source of new anti-malarial agents: a bioassay-guided fractionation of the stem bark” (Malaria Journal, 2011):

Tested on: LLC-MK2 monkey kidney epithelial cells
Test: cytotoxicity on LLC-MK2 monkey kidney epithelial cells
Conditions: SI = CC50/IC50
Protocol: The cytotoxicity profiles of the extracts and pure compounds were estimated against LLC-MK2 monkey kidney epithelial cells according to the procedure previously described with some modifications. Cells were cultured under the same conditions as P. falciparum. Cells were distributed in 96-well plates at 20,000 cells per well in 100 μL culture medium, and allowed to attach and become confluent, for 24h. The medium was then removed completely the next day and 100 μL of fresh medium was added to all the wells, followed by 100 μL of crude extract (1000 μg/mL) or pure compounds (200 μg/mL) added in triplicate in row H. A two folds serial dilution was made upward to obtain concentration range of 250 - 3.90 μg/ml (crude extract) or 50 - 0.78 μg/ml (pure compounds), cells at row A serving as control without drug. The plates were incubated for five days at 37°C in 5% CO2 in air. Cells concentration and viability in the presence of extracts or pure compounds were compared with that of control cultures without extracts.

## C=C(C)[C@@H]1CC[C@]2(C(=O)O)CC[C@]3(C)[C@H](CC[C@@H]4[C@@]5(C)CC[C@H](O)C(C)(C)[C@@H]5CC[C@]43C)[C@@H]12 [HLT1, 3-hydroxy-lup-20(29)-en-28-oic acid]
First SI column of Table 3
  Mean SI for W2mef: 4.98
Second SI column of Table 3 (same head printed)
  Mean SI for W2mef: 4.46
